In patent US11073509B2, “Assays and methods for determining the responsiveness of an individual subject to a therapeutic agent” (Celcuity Inc., priority 2013, dated 2021):
Some of these results come from one statement about several compounds together.

System: Patient B4 cells (HER2 overexpressing breast cancer)
Experiment: CELx Pathway Shutdown test, impedance biosensor CReMS, EGF stimulation
Type: cell-based, human
Details: pathway stimulated with receptor ligand (EGF), vs stimulated cells without drug
Excerpt: CReM and microplate: A 4″×6″, 96-well impedance microplate was placed into a Roche Applied Science (Indianapolis, Ind.) xCELLigence SP impedance biosensor designed to maintain constant voltage while measuring simultaneously the impedance of every well. The change in impedance for a particular well is proportional to the number of cells and type of attachment the cells have with the impedance microplate. Changes in impedance indicate a response to perturbation of these small cell populations.
Cells: Cells from Patient B1 and B4 were utilized. […] Prior to addition to the impedance microplate, the cells were removed from their growth container with versene, counted, and re-suspended in media without serum or other growth factors.
Buffers and reagents: Standard media, serum, antibiotics (e.g. penicillin, streptomycin), and other buffers were purchased and used as delivered from ATCC (Manassas, Va., USA) or Life Technologies (Grand Island, N.Y.). Additional growth factor (mature human EGF ca6KDa) was purchased from R&D Systems (Minneapolis, Minn.) and prepared in buffered cell media without growth factors or serum.
Procedure: Between 6,000-12,000 cells in each well were seeded onto the impedance microplate containing 120 uL standard media with serum. The solution was replaced with media containing no serum to synchronize the cells with respect to physiologic state and pathway stimulation. […]

## CS(=O)(=O)CCNCc1ccc(-c2ccc3ncnc(Nc4ccc(OCc5cccc(F)c5)c(Cl)c4)c3c2)o1 [lapatinib, Lapatinib]
  decrease of cell index of test cells after drug: over 50%
